Results published in patent US20150376619, “APTAMERS THAT BIND CD271” (VIVONICS, INC., published 2015).

Target: T1, CD271 (NGFR, p75NTR)/Fc chimera (Homo sapiens) (UniProt P08138)
T1 sequence (looked up, limits assumed): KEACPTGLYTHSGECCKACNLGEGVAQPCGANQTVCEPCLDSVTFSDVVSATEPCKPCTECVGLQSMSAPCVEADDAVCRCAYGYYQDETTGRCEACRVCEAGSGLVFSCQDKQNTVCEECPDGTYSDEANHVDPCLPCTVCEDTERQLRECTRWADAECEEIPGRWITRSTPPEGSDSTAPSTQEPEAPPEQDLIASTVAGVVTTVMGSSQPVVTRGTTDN
Assay: SPR
Conditions: biotinylated for SPR; PBS pH 7.4; aptamer immobilized; p113 text gives the two Kd values in the opposite order (1.1 nM for 1391-Motif); purified recombinant protein; label: biotin; single-stranded DNA

Work on “TACGACTCACTATAGGGATCCAAGAAAGAAAAAGGAGAAAGGGGGGGGGGAATTCCCTTTAGTGAGGGTT [1391-Motif]” yielded a Kd of 19.5 nM.

For at least one entry, the source does not settle the construct or the ends of the probe. Protein sequences can lack the tags named with them.
